PubChem BioAssay AID686937 | Drosophila RNAi Screening Center – 2013
The screen tested about 23,000 reagents; shown is a random part of those with a known target gene and a result. 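Reduced-secretion tags in replicate 1 do not always agree with the z-scores; no criterion for assigning the tags was given.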 A plus sign joins genes that one reagent is predicted to hit. Not all columns of the deposit are shown. The record does not give: the amount of reagent.

Test: 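Genes in the fly needed for secretion of protein constitutively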 (primary screen)
System: Drosophila S2 cells expressing secreted horseradish peroxidase
Knock-down reagent: long dsRNA against Drosophila genes
Time to read-out: about 5.5 days (5 days dsRNA, then 12 h reporter induction)
Treatment: reporter expression induced after 5 days of dsRNA, read 12 h later; inducer not stated
Detection: 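After 5 days of dsRNA and 12 h of reporter induction, medium peroxidase read by chemiluminescence and scored as per-plate z-score; higher values mean more reporter released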
Direction: z-score: higher = more reporter secreted into medium

| Gene | DRSC id | z-score, replicate 1 | z-score, replicate 2 | z-score, replicate 3 |
| --- | --- | --- | --- | --- |
| Sk2 (GeneID 326219) | DRSC08556 | 0.19 | 0.41 | – |
| fsd (GeneID 36463) | DRSC06166 | 0.26 | 0.51 | – |
| sip2 (GeneID 33979) | DRSC03154 | -0.68 | -0.01 | – |
| CG30269 (GeneID 37600) | DRSC04158 | 0.29 | 0.45 | – |
| rib (GeneID 44855) | DRSC07021 | 0.58 | 0.28 | – |
| CG5958 (GeneID 34022) | DRSC02915 | 0.01 | 0.15 | – |
| sotv + CG10731 | DRSC05930 | 0.39 | 0.42 | – |
| sotv + CG10731 | DRSC05997 | 0.36 | 0.01 | – |
| CG12395 (GeneID 32571) | DRSC19453 | 0.18 | 0.15 | – |
| Cyt-c-p (GeneID 34996) | DRSC03310 | 0.31 | -0.41 | – |
| Atx-1 (GeneID 31624) | DRSC18365 | 0.19 | 0.59 | – |
| Polr2L (GeneID 42942) | DRSC14630 | -0.39 | -2.87 | – |
| Ssl1 (GeneID 40509) | DRSC11634 | -1.9 | -1.16 | – |
| CG32237 (GeneID 38584) | DRSC08312 | 0.33 | 0.26 | – |
| CG32237 (GeneID 38584) | DRSC08315 | 0.18 | 0.35 | – |
| CG3492 (GeneID 37902) | DRSC04373 | 0.11 | 0.43 | – |
| Mat89Ba (GeneID 41973) | DRSC14540 | 0.11 | 0.26 | – |
| Taf2 (GeneID 39164) | DRSC11298 | -0.01 | -0.37 | – |
| E(spl)malpha-BFM (GeneID 43153) | DRSC16994 | -0.3 | -0.22 | – |
| lncRNA:CR42735 (retired record) (GeneID 14462711) | DRSC00921 | -0.21 | 0.1 | – |
| Syx7 (GeneID 36173) | DRSC11763 | 0.33 | 0.31 | – |
| GstT4 (GeneID 32299) | DRSC19757 | -0.13 | 0.11 | – |
| Tsp42En (GeneID 35624) | DRSC06185 | 0.17 | 0.24 | – |
| CG15456 (GeneID 50123) | DRSC20527 | 0.28 | 0.13 | – |
| TwdlD (GeneID 43210) | DRSC14738 | 0.36 | 0.51 | – |
| Ask1 (GeneID 42366) | DRSC16789 | 0.43 | 0.52 | – |
| Ask1 (GeneID 42366) | DRSC21697 | 0.18 | 0.03 | – |
| CG14257 (GeneID 43257) | DRSC14752 | 0.33 | 0.48 | – |
| Art9 (GeneID 41698) | DRSC16584 | 0.19 | 0.42 | – |
| z (GeneID 31230) | DRSC18855 | -1.32 | -1.13 | – |
| msi (GeneID 43087) | DRSC17003 | -0.41 | -0.76 | – |
| CG11131 (GeneID 40511) | DRSC11636 | 0.61 | -0.37 | – |
| CG11131 (GeneID 40511) | DRSC21736 | -0.25 | -0.48 | – |
| lambdaTry (GeneID 36214) | DRSC06137 | 0.46 | 0.31 | – |
| CG14332 (GeneID 42098) | DRSC14811 | 0.37 | 0.56 | – |
| CG7987 (GeneID 41768) | DRSC16357 | -0.12 | -0.13 | – |
| pds5 (GeneID 36286) | DRSC06670 | -0.29 | -0.4 | – |
| CG13675 (GeneID 38907) | DRSC08908 | -2.45 | -1.39 | – |
| CG13675 (GeneID 38907) | DRSC10034 | -2.35 | -8.95 | – |
| CG9896 (GeneID 37652) | DRSC03962 | 0.27 | 0.09 | – |
| CG9896 (GeneID 37652) | DRSC04594 | 0.21 | 0.13 | – |
| Frq1 (GeneID 32797) | DRSC19961 | 0.15 | 0.5 | – |
| CG7997 (GeneID 36829) | DRSC07052 | 0.36 | 0.27 | – |
| Abl (GeneID 45821) | DRSC09661 | 0.32 | 0.36 | – |
| DNAlig4 (GeneID 32322) | DRSC19436 | 0.19 | 0.46 | – |
| CG1789 (GeneID 31812) | DRSC18140 | 0.37 | 0.43 | – |
| CG5810 (GeneID 42513) | DRSC15880 | 0.03 | 0.23 | – |
| CG5810 (GeneID 42513) | DRSC21921 | -0.18 | -5.44 | – |
| CG34149 (GeneID 4379861) | DRSC14537 | 0.29 | 0.26 | – |
| Tsp42Eq (GeneID 35628) | DRSC06180 | 0.26 | 0.3 | – |
| side-IV + asRNA:CR17025 | DRSC14833 | 0.28 | 0.02 | – |
| side-IV + asRNA:CR17025 | DRSC15168 | 0.17 | 0.21 | – |

Continued, starting with the last 7 of the part before.
| Gene | DRSC id | z-score, replicate 1 | z-score, replicate 2 | z-score, replicate 3 |
| --- | --- | --- | --- | --- |
| CG1789 (GeneID 31812) | DRSC18140 | 0.37 | 0.43 | – |
| CG5810 (GeneID 42513) | DRSC15880 | 0.03 | 0.23 | – |
| CG5810 (GeneID 42513) | DRSC21921 | -0.18 | -5.44 | – |
| CG34149 (GeneID 4379861) | DRSC14537 | 0.29 | 0.26 | – |
| Tsp42Eq (GeneID 35628) | DRSC06180 | 0.26 | 0.3 | – |
| side-IV + asRNA:CR17025 | DRSC14833 | 0.28 | 0.02 | – |
| side-IV + asRNA:CR17025 | DRSC15168 | 0.17 | 0.21 | – |
| jdp (GeneID 43630) | DRSC16975 | 0.47 | 0.39 | – |
| CG12301 (GeneID 39689) | DRSC09875 | 0.22 | 0.02 | – |
| CG32591 (GeneID 318104) | DRSC19063 | -0.48 | -0.48 | – |
| CG32457 (GeneID 318040) | DRSC11596 | 0.65 | 0.38 | 0.51 |
| CG32457 (GeneID 318040) | DRSC21722 | 0.4 | -0.06 | – |
| CG13217 (GeneID 36180) | DRSC06339 | 0.24 | 0.45 | – |
| Ube4B (GeneID 34699) | DRSC03277 | 0.12 | 0.33 | – |
| SoYb (GeneID 34331) | DRSC02901 | -0.29 | 0.3 | – |
| Sobp (GeneID 36260) | DRSC07312 | 0.67 | 0.34 | – |
| CG1703 (GeneID 32112) | DRSC19764 | 0.31 | -0.16 | – |
| CG15909 (GeneID 35572) | DRSC04977 | 0.19 | 0.17 | – |
| CG31910 + snoRNA:Me28S-G2743 (retired record) | DRSC00946 | -0.26 | 0.28 | – |
| CG17959 (GeneID 31288) | DRSC18142 | 0.31 | 0.24 | – |
| dcma (GeneID 5740672) | DRSC00246 | 0.28 | 0.2 | – |
| dcma (GeneID 5740672) | DRSC00338 | 0.39 | 0.32 | – |
| CG32846 (GeneID 318244) | DRSC08012 | 0.36 | 0.52 | – |
| sel (GeneID 36046) | DRSC06232 | 0.08 | 0.34 | 0.34 |
| Gyg (GeneID 37419) | DRSC03850 | -3.31 | -1.47 | – |
| Gyg (GeneID 37419) | DRSC04556 | 0.27 | 0.23 | – |
| CG11893 (GeneID 43056) | DRSC14429 | 0.36 | 0.36 | – |
| CG13344 (GeneID 36541) | DRSC06378 | 0.33 | 0.32 | – |
| spidey (GeneID 31703) | DRSC17932 | 0.11 | 0.23 | – |
| Grl65a (GeneID 117342) | DRSC08837 | 0.56 | 0.43 | – |
| Nin (GeneID 33757) | DRSC02007 | 0.28 | 0.22 | – |
| Patronin (GeneID 36978) | DRSC06756 | 0.48 | -0.38 | – |
| Patronin (GeneID 36978) | DRSC06757 | 0.36 | 0.2 | – |
| Patronin (GeneID 36978) | DRSC06994 | 0.35 | 0.25 | – |
| CG8401 (GeneID 36770) | DRSC07165 | 0.39 | 0.21 | – |
| Chd1 (GeneID 33505) | DRSC00745 | 0.48 | 0.56 | – |
| ais (GeneID 39979) | DRSC10523 | 0.3 | 0.39 | – |
